Patent US20240262917A1, “ANTIBODIES AGAINST ALK AND METHODS OF USE THEREOF” (Dana-Farber Cancer Institute, Inc., priority 2021, published 2024)
Results are given in words; binding and its absence hold for the method and conditions named. Some binding calls cover weakened binding; strength is not graded here.

Protein sequences, listed by entry. Tags and fused reporters are not part of them. Lines headed by an entry give the natural chain unless they say otherwise; changes in a name come on top.
UniProt Q9UM73: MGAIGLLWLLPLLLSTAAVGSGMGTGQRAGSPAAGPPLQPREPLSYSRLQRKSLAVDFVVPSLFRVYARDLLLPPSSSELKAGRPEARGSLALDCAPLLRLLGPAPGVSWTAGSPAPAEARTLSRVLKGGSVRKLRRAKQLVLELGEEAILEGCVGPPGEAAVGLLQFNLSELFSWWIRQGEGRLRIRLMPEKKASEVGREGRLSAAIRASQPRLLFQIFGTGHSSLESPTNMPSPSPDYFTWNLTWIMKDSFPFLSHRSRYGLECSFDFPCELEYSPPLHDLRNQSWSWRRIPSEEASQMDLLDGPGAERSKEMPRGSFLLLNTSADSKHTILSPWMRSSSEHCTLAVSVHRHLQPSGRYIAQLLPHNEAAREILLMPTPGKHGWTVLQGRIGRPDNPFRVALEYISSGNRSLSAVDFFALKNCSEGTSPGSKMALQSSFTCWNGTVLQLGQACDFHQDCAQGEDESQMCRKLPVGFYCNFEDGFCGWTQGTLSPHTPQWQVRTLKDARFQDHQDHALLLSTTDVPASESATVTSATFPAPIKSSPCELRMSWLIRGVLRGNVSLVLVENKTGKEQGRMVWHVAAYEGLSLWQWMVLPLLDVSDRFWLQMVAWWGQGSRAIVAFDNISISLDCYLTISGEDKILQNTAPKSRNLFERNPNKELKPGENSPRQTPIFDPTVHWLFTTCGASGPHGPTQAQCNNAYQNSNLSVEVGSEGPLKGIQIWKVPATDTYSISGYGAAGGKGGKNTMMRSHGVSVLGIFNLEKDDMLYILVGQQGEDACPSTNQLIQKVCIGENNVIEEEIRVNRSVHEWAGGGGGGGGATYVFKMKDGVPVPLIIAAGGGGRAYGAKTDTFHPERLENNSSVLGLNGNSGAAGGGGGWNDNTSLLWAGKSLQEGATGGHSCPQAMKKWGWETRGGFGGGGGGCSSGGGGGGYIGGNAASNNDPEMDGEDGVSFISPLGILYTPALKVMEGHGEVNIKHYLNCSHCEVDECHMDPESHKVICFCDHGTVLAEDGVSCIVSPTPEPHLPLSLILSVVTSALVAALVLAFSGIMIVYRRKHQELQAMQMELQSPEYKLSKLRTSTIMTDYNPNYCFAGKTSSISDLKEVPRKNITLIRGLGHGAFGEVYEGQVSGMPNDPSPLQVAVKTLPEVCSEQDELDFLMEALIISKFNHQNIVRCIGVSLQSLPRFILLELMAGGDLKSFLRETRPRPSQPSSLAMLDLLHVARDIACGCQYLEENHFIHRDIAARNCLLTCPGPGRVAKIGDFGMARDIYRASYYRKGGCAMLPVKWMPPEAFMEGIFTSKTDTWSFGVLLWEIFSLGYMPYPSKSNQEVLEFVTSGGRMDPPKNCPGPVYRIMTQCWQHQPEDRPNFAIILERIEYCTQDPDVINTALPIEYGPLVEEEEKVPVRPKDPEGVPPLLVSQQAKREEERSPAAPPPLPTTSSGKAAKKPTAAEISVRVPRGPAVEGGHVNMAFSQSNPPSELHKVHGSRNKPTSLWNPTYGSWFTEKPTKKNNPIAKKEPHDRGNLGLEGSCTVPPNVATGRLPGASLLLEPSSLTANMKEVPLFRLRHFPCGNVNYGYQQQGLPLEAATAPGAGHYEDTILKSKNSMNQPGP

Key:
[1] = molecular target: Shed ALK extracellular domain fragment (ALK 1-654) (human) (UniProt Q9UM73); test: western blot of conditioned media of NGP and ALK-expressing 293T cells
[2] = molecular target: Shed ALK extracellular domain fragment (ALK 1-654) (human) (UniProt Q9UM73); test: sandwich ELISA, capture antibody
[3] = molecular target: Full-length human anaplastic lymphoma kinase (ALK) receptor, wild type (human) (UniProt Q9UM73); test: hybridoma clone screening (ELISA, flow cytometry)
[4] = molecular target: Full-length human anaplastic lymphoma kinase (ALK) receptor, wild type (human) (UniProt Q9UM73); test: western blot of NB cell lysates
[5] = molecular target: Full-length human anaplastic lymphoma kinase (ALK) receptor, wild type (human) (UniProt Q9UM73); test: immunoblotting, immunoprecipitation
[6] = molecular target: Shed ALK extracellular domain fragment (ALK 1-654) (human) (UniProt Q9UM73); test: ELISA on patient sera

binding [1]: binds | binding [2]: binds | binding [3]: binds | binding [4]: binds | binding [5]: binds | binding [6]: binds
B1: Monoclonal anti-ALK antibody 5H3 (antibody, IgG1, V domains shown)
VH: QVQLQQSGAELVRPGASVTLSCKASGYTFTDYEMHWVKQTPVHGLEWIGAIDPETGGSAYNQKFKAKAILTADRSSSTAYMELRSLTSEDSAVYYCTRTRYYGSSPAMDYWGQGTSVTVSS
VL: DIQMTQTTSSLSASLGDRVTISCSASQGIGNYLNWYQQKPDGTVKLLIYYTSSLHSGVPSRFSGSGSGTDYSLTISNLEPEDIATYYCQQYSKLPYTFGGGTKLEIKR
